# The supplement of paper PMC9135407
# Values joined by “and” are separate entries in the source; they are usually repeats but may differ in a detail not shown here. Equal entries are not always repeated. Structures can show the parent of a compound that is named as a salt. ± gives the standard deviation of the averaged measurements. The list shows a part of the results. Baselines shift from plate to plate; read single values as rough.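 Culture-activated primary human stellate myofibroblasts, where regained lipid droplets signal inactivation. Value: share of Hoechst-counted cells above a per-plate Bodipy cutoff, in duplicate wells, with DMSO negative and nortriptyline positive controls on each plate. Hits: a control-normalized score above the plate's top-tenth-percentile nortriptyline wells, or one of a plate's three best wells. Final well concentrations are not given.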
# System: primary human hepatic stellate cells (donor 1)
# Assay: percent Bodipy-positive cells; higher = more lipid droplet accumulation
# Details: 48 h
# [1] = library stock concentration: 3.33 mM
# [2] = library stock concentration: 10 mM
# [3] = library stock concentration: 1 mM
# [4] = library stock concentration: 6.4 mM
compound,measurement,setting,value
CS(=O)(=O)N1CCN(Cc2cc3nc(-c4cccc5[nH]ncc45)nc(N4CCOCC4)c3s2)CC1,percent Bodipy-positive cells,library stock concentration: 80 uM,15.9 ± 5.1%
same,percent Bodipy-positive cells,library stock concentration: 400 uM,10.6% and 18.6%
same,percent Bodipy-positive cells,library stock concentration: 2 mM,19.2% and 32.2%
same,percent Bodipy-positive cells,[1],20.7 ± 0.49%
same,percent Bodipy-positive cells,[2],58.5% and 50.6%
CC(C)(C)NC(=O)[C@@H]1C[C@@H]2CCCC[C@@H]2CN1C[C@@H](O)[C@H](Cc1ccccc1)NC(=O)[C@H](CC(N)=O)NC(=O)c1ccc2ccccc2n1 [Saquinavir mesylate],percent Bodipy-positive cells,,10.5 ± 2.5%
CC(C)(C)NC(=O)[C@@H]1C[C@@H]2CCCC[C@@H]2CN1C[C@@H](O)[C@H](Cc1ccccc1)NC(=O)[C@H](CC(N)=O)NC(=O)c1ccc2ccccc2n1,percent Bodipy-positive cells,[2],37.1 ± 7.6%
COc1ccc2[nH]c([S@@+]([O-])Cc3ncc(C)c(OC)c3C)nc2c1 [Esomeprazole magnesium dihydrate],percent Bodipy-positive cells,[2],40.4 ± 2.2%
COc1ccc2[nH]c([S@@+]([O-])Cc3ncc(C)c(OC)c3C)nc2c1 [Esomeprazole Sodium],percent Bodipy-positive cells,[1],5.66 ± 0.93%
same,percent Bodipy-positive cells,[2],12.8 ± 0.26%
COc1ccc2[nH]c([S@@+]([O-])Cc3ncc(C)c(OC)c3C)nc2c1 [Esomeprazole potassium],percent Bodipy-positive cells,library stock concentration: 5.8 mM,11.1 ± 0.58%
Cc1cc(NC2CCCCC2)nc(-n2nc(C)cc2C)n1,percent Bodipy-positive cells,[2],43.2 ± 6.3%
NCCSSCCN [Cystamine dihydrochloride],percent Bodipy-positive cells,[2],42.8% and 40.1%
"CCCCC(C)(C)[C@H](O)/C=C/[C@H]1[C@H](O)CC(=O)[C@@H]1CC(=O)CCCCC(=O)O [16,16-dimethyl-6-keto Prostaglandin E1]",percent Bodipy-positive cells,[3],17.7 ± 1.9%
Nc1nc2c(ncn2COCCO)c(=O)[nH]1 [Aciclovir],percent Bodipy-positive cells,[1],5.405 ± 0.052%
same,percent Bodipy-positive cells,[2],12.6 ± 2.8%
Nc1nc2c(ncn2COCCO)c(=O)[nH]1 [Acycloguanosine],percent Bodipy-positive cells,library stock concentration: 8.9 mM,5.5 ± 0.43%
Nc1nc2c(ncn2COCCO)c(=O)[nH]1 [Acyclovir],percent Bodipy-positive cells,,21.1 ± 0.65%
Cc1ccccc1C(=O)c1ccc(Nc2ccc(Br)cc2N)cc1Cl,percent Bodipy-positive cells,[2],8.54 ± 1.7%
COc1ccc(C(=O)CC(=O)c2ccc(C(C)(C)C)cc2)cc1 [Avobenzone],percent Bodipy-positive cells,[1],9.67 ± 3.7%
same,percent Bodipy-positive cells,[4],10.3 ± 5.8%
same,percent Bodipy-positive cells,[2],16.9% and 40.3%
c1ccc(C(O[C@@H]2CCCN(CCc3ccc4c(c3)OCO4)C2)c2ccccc2)cc1 [Zamifenacin fumarate],percent Bodipy-positive cells,[2],21.4 ± 3.5%
CC(=O)OCC(=O)[C@@]1(O)[C@H](C)C[C@H]2[C@@H]3CCC4=CC(=O)C=C[C@]4(C)[C@@]3(F)[C@@H](O)C[C@@]21C [Dexamethasone acetate],percent Bodipy-positive cells,,17.7 ± 7.1%
same,percent Bodipy-positive cells,[2],9.22 ± 0.32%
COc1ncnc(NS(=O)(=O)c2ccc(N)cc2)c1OC [Sulfadoxine],percent Bodipy-positive cells,,11.4 ± 0.66%
same,percent Bodipy-positive cells,[4],7.49% and 1.9%
CCCCCCCC(=O)CC[C@@H]1[C@@H](C/C=C\CCCC(=O)O)[C@@H](O)C[C@H]1O [Unoprostone],percent Bodipy-positive cells,[3],14.5 ± 3.5%
CN1CCN(CC/C=C2\c3ccccc3Sc3ccc(S(=O)(=O)N(C)C)cc32)CC1 [Thiothixene],percent Bodipy-positive cells,library stock concentration: 4.5 mM,87.8 ± 2.1%

# In a second layout: entries from further up.
compound | measurement | setting | value
COc1ccc2[nH]c([S@@+]([O-])Cc3ncc(C)c(OC)c3C)nc2c1 [Esomeprazole Sodium] | percent Bodipy-positive cells | [2] | 12.8 ± 0.26%
COc1ccc2[nH]c([S@@+]([O-])Cc3ncc(C)c(OC)c3C)nc2c1 [Esomeprazole potassium] | percent Bodipy-positive cells | library stock concentration: 5.8 mM | 11.1 ± 0.58%
Cc1cc(NC2CCCCC2)nc(-n2nc(C)cc2C)n1 | percent Bodipy-positive cells | [2] | 43.2 ± 6.3%
NCCSSCCN [Cystamine dihydrochloride] | percent Bodipy-positive cells | [2] | 42.8% and 40.1%
CCCCC(C)(C)[C@H](O)/C=C/[C@H]1[C@H](O)CC(=O)[C@@H]1CC(=O)CCCCC(=O)O [16,16-dimethyl-6-keto Prostaglandin E1] | percent Bodipy-positive cells | [3] | 17.7 ± 1.9%
Nc1nc2c(ncn2COCCO)c(=O)[nH]1 [Aciclovir] | percent Bodipy-positive cells | [1] | 5.405 ± 0.052%
same | percent Bodipy-positive cells | [2] | 12.6 ± 2.8%
